Here are results for four molecules from patent publication US20110059469A1 (UNIVERSITY OF TOKYO, published 2011).

Positions count from the first letter of the chain named. These are yes or no findings as the source states them, for the method shown. Some entries that bind do so weakly or less than the wild type.

The target in assay [1] is T1, human Claudin6 (CLDN6) (human) (UniProt P56747).
T1 sequence: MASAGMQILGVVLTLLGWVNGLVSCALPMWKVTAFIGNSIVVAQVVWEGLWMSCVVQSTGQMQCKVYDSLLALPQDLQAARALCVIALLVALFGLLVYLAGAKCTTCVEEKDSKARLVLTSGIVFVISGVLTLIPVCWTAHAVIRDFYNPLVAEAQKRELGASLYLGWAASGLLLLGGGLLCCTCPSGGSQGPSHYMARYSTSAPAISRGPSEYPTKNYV
The experiment in a line: flow cytometry on ABC-1 and AGS cancer cells. For orientation: A flow cytometer gives signals particle by particle.

For assay [2], the target named is T1, human Claudin6 (CLDN6) (human). The experiment in a line: flow cytometry on Ba/F3 cells forced to express human CLDN6.
The target is the same in assay [3]. In words: flow cytometry on Ba/F3 cells forced to express human CLDN6; parent Ba/F3 not bound.
For assay [4] the target is unchanged. In words: flow cytometry (cells not named).

B1: AB3-1 (antibody, V domains shown)
VH: EVQLQQSGPELVKPGGSMKISCKASGYSFTGYTMNWVKQSHGKNLEWIGLINPYNGGISYNQKFKDKATLTMDKSSSTAYMELLSLTSEDSAIYFCARDYRYEGFDYWGQGTLVTVSA
VL: QIVLTQSPAIMSASLGERVTMTCTASSVVISTYLHWYQQKPGSSPKLWIYSTSNLASGVPVRFSGSGSGTSYSLTISSMEAEDAATYYCHQYHRSPWTFGGGTKLEIK
notes: also called anti-human CLDN6 monoclonal antibody AB3-1
With B1, the binding result in assay [1], in assay [2] and in assay [3] was “binds” each time.

B2: AE1-16 (antibody, V domains shown)
VH: EVQLQQSGPELVKPGASVKISCKASGYSFTGYFMNWVKQSHGKSLEWIGRINPYNGDTFYNQKFKGKATLTVDKSSNTAHMELRSLTSEDSAVYYCARVLFLDFDDPYLMDYWGQGTSVTVSS
VL: ENVLTQSPAIMSATLGEKVTMSCRATSNVKYMYWYQQKSGASPKLWIYYTSNLASGVPARFSGSGSGTSYSLTISSVEAADAATYYCQQFTSSPSTFGAGTKLELK
notes: also called anti-human CLDN6 monoclonal antibody AE1-16
For the molecule B2, the binding entry in assay [1], in assay [2] and in assay [3] was “binds” each time.

B3: AE49-11/mIgG2a (antibody, V domains shown)
VH: B2 VH with N77S
VL: ENVLTQSPAIMSATLGEKVTMSCRATSNVKYMYWYQQKSGASPKLWIYYTSNLASGVPARFSGSGSGTSYSLTISSVEAADAATYYCQQFTSSPSTFGAGTKLELKR
Turning to B3, the binding entry in assay [4] is “binds”.

B4: AE49-11 (antibody, IgG2b, V domains shown)
VH: B2 VH with N77S
VL: B2 VL
notes: also called AE49-11 antibody; original IgG2b antibody
In the case of B4, the binding entry in assay [1], in assay [2] and in assay [3] was “binds” in each case.
